Measurements from the supplement of paper PMC8728848.
Some of the results follow.

Tests used:
Assay in all cases: glycan array binding signal (z-score within array); higher = stronger binding
Details in all cases: glycan notation: IUPAC condensed, linker removed; mutation: Q318A
Neu5Ac(a2-3)Gal = target: Neu5Ac(a2-3)Gal
Outline: (§1)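 Arrays were curated from the Consortium for Functional Glycomics database, 3228 in total, and kept only where the protein sequence was available. Binding is expressed as a within-array Z-score. This score was averaged across arrays of the same protein sequence at different concentrations or buffers and across linkers, and negative values can be read as non-binding.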

[1] = target: Neu5Ac(a2-3)Gal(b1-3)GalNAc
Outline: as §1

[2] = target: Neu5Ac(a2-3)Gal(b1-3)GalNAc(b1-3)Gal(a1-4)Gal(b1-4)Glc
Outline: as §1

[3] = target: Neu5Ac(a2-3)Gal(b1-3)GalNAc(b1-4)Gal(b1-4)Glc
Outline: as §1

[4] = target: Neu5Ac(a2-3)Gal(b1-3)GalNAc(b1-4)[Neu5Ac(a2-3)]Gal(b1-4)Glc
Outline: as §1

[5] = target: Neu5Ac(a2-3)Gal(b1-3)GalNAc(b1-4)[Neu5Ac(a2-8)Neu5Ac(a2-3)]Gal(b1-4)Glc
Outline: as §1

[6] = target: Neu5Ac(a2-3)Gal(b1-3)GalNAc6S
Outline: as §1

[7] = target: Neu5Ac(a2-3)Gal(b1-3)GlcNAc
Outline: as §1

[8] = target: Neu5Ac(a2-3)Gal(b1-3)GlcNAc(b1-2)Man
Outline: as §1

[9] = target: Neu5Ac(a2-3)Gal(b1-3)GlcNAc(b1-2)Man(a1-3)[GlcNAc(b1-4)][Neu5Ac(a2-3)Gal(b1-3)GlcNAc(b1-2)Man(a1-6)]Man(b1-4)GlcNAc(b1-4)GlcNAc
Outline: as §1

[10] = target: Neu5Ac(a2-3)Gal(b1-3)GlcNAc(b1-2)Man(a1-3)[Neu5Ac(a2-3)Gal(b1-3)GlcNAc(b1-2)Man(a1-6)]Man(b1-4)GlcNAc(b1-4)GlcNAc
Outline: as §1

[11] = target: Neu5Ac(a2-3)Gal(b1-3)GlcNAc(b1-2)[Neu5Ac(a2-3)Gal(b1-3)GlcNAc(b1-4)]Man(a1-6)[Neu5Ac(a2-3)Gal(b1-3)GlcNAc(b1-2)Man(a1-3)]Man(b1-4)GlcNAc(b1-4)GlcNAc
Outline: as §1

[12] = target: Neu5Ac(a2-3)Gal(b1-3)GlcNAc(b1-3)Gal(b1-3)GlcNAc
Outline: as §1

[13] = target: Neu5Ac(a2-3)Gal(b1-3)GlcNAc(b1-3)Gal(b1-4)GlcNAc
Outline: as §1

[14] = target: Neu5Ac(a2-3)Gal(b1-3)GlcNAc(b1-3)GalNAc
Outline: as §1

[15] = target: Neu5Ac(a2-3)Gal(b1-3)GlcNAc(b1-6)GalNAc
Outline: as §1

[16] = target: Neu5Ac(a2-3)Gal(b1-3)GlcNAc6S
Outline: as §1

[17] = target: Neu5Ac(a2-3)Gal(b1-3)[Fuc(a1-4)]GlcNAc
Outline: as §1

[18] = target: Neu5Ac(a2-3)Gal(b1-3)[Fuc(a1-4)]GlcNAc(b1-3)Gal(b1-3)[Fuc(a1-4)]GlcNAc
Outline: as §1

[19] = target: Neu5Ac(a2-3)Gal(b1-3)[Fuc(a1-4)]GlcNAc(b1-3)Gal(b1-4)[Fuc(a1-3)]GlcNAc
Outline: as §1

[20] = target: Neu5Ac(a2-3)Gal(b1-3)[GlcNAc(b1-6)]GalNAc
Outline: as §1

[21] = target: Neu5Ac(a2-3)Gal(b1-3)[Neu5Ac(a2-6)]GalNAc
Outline: as §1

[22] = target: Neu5Ac(a2-3)Gal(b1-3)[Neu5Ac(a2-6)]GlcNAc(b1-3)[Fuc(a1-3)[Gal(b1-4)]GlcNAc(b1-6)]Gal(b1-4)Glc
Outline: as §1

[23] = target: Neu5Ac(a2-3)Gal(b1-3)]Neu5Ac(a2-3)Gal(b1-4)]GlcNAc
Outline: as §1

Neu5Ac(a2-3)Gal(b1-4)Glc = target: Neu5Ac(a2-3)Gal(b1-4)Glc
Outline: as §1

[24] = target: Neu5Ac(a2-3)Gal(b1-4)GlcNAc
Outline: as §1

[25] = target: Neu5Ac(a2-3)Gal(b1-4)GlcNAc(b1-2)Man
Outline: as §1

[26] = target: Neu5Ac(a2-3)Gal(b1-4)GlcNAc(b1-2)Man(a1-3)[GlcNAc(b1-4)][Neu5Ac(a2-3)Gal(b1-4)GlcNAc(b1-2)Man(a1-6)]Man(b1-4)GlcNAc(b1-4)GlcNAc
Outline: as §1

[27] = target: Neu5Ac(a2-3)Gal(b1-4)GlcNAc(b1-2)Man(a1-3)[Neu5Ac(a2-3)Gal(b1-4)GlcNAc(b1-2)Man(a1-6)]Man(b1-4)GlcNAc(b1-4)GlcNAc
Outline: as §1

[28] = target: Neu5Ac(a2-3)Gal(b1-4)GlcNAc(b1-2)Man(a1-3)[Neu5Ac(a2-3)Gal(b1-4)GlcNAc(b1-2)Man(a1-6)]Man(b1-4)GlcNAc(b1-4)[Fuc(a1-6)]GlcNAc
Outline: as §1

[29] = target: Neu5Ac(a2-3)Gal(b1-4)GlcNAc(b1-2)Man(a1-3)[Neu5Ac(a2-6)Gal(b1-4)GlcNAc(b1-2)Man(a1-6)]Man(b1-4)GlcNAc(b1-4)GlcNAc
Outline: as §1

[30] = target: Neu5Ac(a2-3)Gal(b1-4)GlcNAc(b1-2)[Neu5Ac(a2-3)Gal(b1-4)GlcNAc(b1-4)]Man(a1-3)[GlcNAc(b1-4)][Neu5Ac(a2-3)Gal(b1-4)GlcNAc(b1-2)[Neu5Ac(a2-3)Gal(b1-4)GlcNAc(b1-6)]Man(a1-6)]Man(b1-4)GlcNAc(b1-4)GlcNAc
Outline: as §1

[31] = target: Neu5Ac(a2-3)Gal(b1-4)GlcNAc(b1-2)[Neu5Ac(a2-3)Gal(b1-4)GlcNAc(b1-4)]Man(a1-3)[GlcNAc(b1-4)][Neu5Ac(a2-3)Gal(b1-4)GlcNAc(b1-4)Man(a1-6)]Man(b1-4)GlcNAc(b1-4)GlcNAc
Outline: as §1

[32] = target: Neu5Ac(a2-3)Gal(b1-4)GlcNAc(b1-2)[Neu5Ac(a2-3)Gal(b1-4)GlcNAc(b1-6)]Man(a1-6)[Neu5Ac(a2-3)Gal(b1-4)GlcNAc(b1-2)Man(a1-3)][GlcNAc(b1-4)]Man(b1-4)GlcNAc(b1-4)GlcNAc
Outline: as §1

[33] = target: Neu5Ac(a2-3)Gal(b1-4)GlcNAc(b1-3)Gal
Outline: as §1

[34] = target: Neu5Ac(a2-3)Gal(b1-4)GlcNAc(b1-3)Gal(b1-3)GlcNAc
Outline: as §1

[35] = target: Neu5Ac(a2-3)Gal(b1-4)GlcNAc(b1-3)Gal(b1-4)GlcNAc
Outline: as §1

B1: SUN4 (Saccharomyces cerevisiae), P53616 (protein)
chain: MGSSHHHHHHSSGLVPRGSHNGSIYGDLADFSGPYEKFEDGTIPCGQFPSGQGVIPISWLDEGGWSGVENTDTSTGGSCKEGSYCSYACQPGMSKTQWPSDQPSDGRSIGGLLCKDGYLYRSNTDTDYLCEWGVDAAYVVSELSNDVAICRTDYPGTENMVIPTYVQAGDSLPLTVVDQDTYYTWQGLKTSAAYYVNNAGISVEDACVWGSSSSGVGNWAPLNFGAGSSDGVAYLSLIPNPNNGNALNFNVKIVAADDSSTVNGECIYENGSFSGGSDGCTVSVTAGKAKFVLYN
Neu5Ac(a2-3)Gal
  glycan array binding signal (z-score): -0.84
[1]
  glycan array binding signal (z-score): -0.299
[2]
  glycan array binding signal (z-score): 0.327
[3]
  glycan array binding signal (z-score): 1.67
[4]
  glycan array binding signal (z-score): -0.248
[5]
  glycan array binding signal (z-score): -0.283
[6]
  glycan array binding signal (z-score): -1.61
[7]
  glycan array binding signal (z-score): 0.62
[8]
  glycan array binding signal (z-score): -0.566
[9]
  glycan array binding signal (z-score): -0.299
[10]
  glycan array binding signal (z-score): -0.067
[11]
  glycan array binding signal (z-score): 1.64
[12]
  glycan array binding signal (z-score): -0.164
[13]
  glycan array binding signal (z-score): 0.146
[14]
  glycan array binding signal (z-score): -0.232
[15]
  glycan array binding signal (z-score): 1.33
[16]
  glycan array binding signal (z-score): -0.13
[17]
  glycan array binding signal (z-score): -0.89
[18]
  glycan array binding signal (z-score): 0.799
[19]
  glycan array binding signal (z-score): 0.535
[20]
  glycan array binding signal (z-score): 1.39
[21]
  glycan array binding signal (z-score): -0.003
[22]
  glycan array binding signal (z-score): -0.597
[23]
  glycan array binding signal (z-score): -0.3
Neu5Ac(a2-3)Gal(b1-4)Glc
  glycan array binding signal (z-score): 1.56
[24]
  glycan array binding signal (z-score): -0.355
[25]
  glycan array binding signal (z-score): 0.689
[26]
  glycan array binding signal (z-score): -0.326
[27]
  glycan array binding signal (z-score): -0.646
[28]
  glycan array binding signal (z-score): -0.064
[29]
  glycan array binding signal (z-score): 0.211
[30]
  glycan array binding signal (z-score): 1.43
[31]
  glycan array binding signal (z-score): -0.572
[32]
  glycan array binding signal (z-score): 0.346
[33]
  glycan array binding signal (z-score): 0.199
[34]
  glycan array binding signal (z-score): -0.309
[35]
  glycan array binding signal (z-score): -0.231
